Results are given in words; binding and its absence hold for the method and conditions named. In cells and extracts the contact can be indirect. Here binding means that the protein was enriched with, or labelled near, the bait; the list need not be complete.

By UniProt entry, the sequences of proteins in these tests, tags left out. Where a name states a change or a piece, a line headed by the entry shows the natural chain unless it says otherwise.
UniProt Q13200: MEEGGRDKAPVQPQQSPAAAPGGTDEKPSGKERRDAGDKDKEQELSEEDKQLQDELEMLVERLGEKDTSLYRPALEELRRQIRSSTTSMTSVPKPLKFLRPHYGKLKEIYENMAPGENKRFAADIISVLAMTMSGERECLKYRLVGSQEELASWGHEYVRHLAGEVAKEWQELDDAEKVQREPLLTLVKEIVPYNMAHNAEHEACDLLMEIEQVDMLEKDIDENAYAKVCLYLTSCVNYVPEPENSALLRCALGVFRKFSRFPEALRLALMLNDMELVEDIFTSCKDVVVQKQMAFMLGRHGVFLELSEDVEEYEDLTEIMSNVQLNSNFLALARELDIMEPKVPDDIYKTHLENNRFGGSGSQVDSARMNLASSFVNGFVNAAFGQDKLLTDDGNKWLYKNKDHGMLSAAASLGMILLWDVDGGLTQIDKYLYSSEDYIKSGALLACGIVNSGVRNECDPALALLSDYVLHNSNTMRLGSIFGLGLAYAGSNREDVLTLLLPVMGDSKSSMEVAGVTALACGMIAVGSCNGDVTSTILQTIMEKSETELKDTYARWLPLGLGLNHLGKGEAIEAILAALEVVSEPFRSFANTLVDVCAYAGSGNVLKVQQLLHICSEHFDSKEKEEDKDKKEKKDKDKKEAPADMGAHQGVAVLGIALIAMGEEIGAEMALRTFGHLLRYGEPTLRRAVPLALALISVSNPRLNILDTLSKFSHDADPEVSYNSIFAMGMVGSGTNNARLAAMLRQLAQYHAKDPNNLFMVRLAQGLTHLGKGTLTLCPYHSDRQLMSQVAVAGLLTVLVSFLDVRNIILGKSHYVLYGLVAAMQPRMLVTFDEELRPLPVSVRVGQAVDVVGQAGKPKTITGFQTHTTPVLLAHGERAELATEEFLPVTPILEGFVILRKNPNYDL
UniProt P55036: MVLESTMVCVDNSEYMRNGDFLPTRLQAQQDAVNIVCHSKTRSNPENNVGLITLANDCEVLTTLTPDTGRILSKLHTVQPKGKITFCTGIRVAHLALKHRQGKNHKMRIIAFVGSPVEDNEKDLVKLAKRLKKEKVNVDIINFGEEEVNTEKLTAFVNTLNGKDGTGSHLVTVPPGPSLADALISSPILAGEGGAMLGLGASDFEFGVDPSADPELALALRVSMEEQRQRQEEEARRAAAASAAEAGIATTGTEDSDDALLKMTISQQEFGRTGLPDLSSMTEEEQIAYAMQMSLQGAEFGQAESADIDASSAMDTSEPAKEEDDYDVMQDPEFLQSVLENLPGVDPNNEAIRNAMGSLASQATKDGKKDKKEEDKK

The target of the experiment is biotin-tagged PSMD2 (RPN1) (human) (UniProt Q13200). Put plainly: affinity purification with mass spectrometry; proteasomes pulled down through biotin-tagged PSMD2 (RPN1) from engineered HCT116 cells; members identified by (crosslinking) MS.

Consider “PSMD4 (RPN10) (from UniProt P55036 1-377)”, for which the binding result is reported as “binds”.
